# From the supplement of paper PMC10735217
# Counter-ions that a name gives are not always drawn. The list shows a part of the results. This data set is noisy: repeats of one test often differ as much as different tests do.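 Human kidney-derived cells stably carry a construct in which eight TEAD-binding elements drive luciferase, measured by luminescence in a drug-repurposing library screen. A hit is any compound whose signal exceeds the plate mean by more than five robust Z scores.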
# System: HEK293A TEAD-LUC reporter
# Assay: TEAD-luciferase reporter activity (YAP activation), robust Z score vs plate; higher = stronger YAP/TEAD activation
# Conditions: 24 h
SMILES,TEAD-luciferase reporter activity (compound concentration: 200 nM),TEAD-luciferase reporter activity (compound concentration: 2 uM),TEAD-luciferase reporter activity (compound concentration: 10 uM)
c1ccc2c(CC3=NCCN3)cccc2c1,inactive: -2.02,inactive: 1.93,inactive: -1.89
C=CCc1cccc(/C=N\NC(=O)CN2CCN(Cc3ccccc3)CC2)c1O,inactive: -1.23,inactive: -0.388,inactive: -2.59
NC(=O)CN1Cc2ccccc2OC1=O [caroxazone],inactive: 1.51,inactive: 0.0218,active: 6.32
COc1cc2c(cc1OC)S(=O)(=O)OC(C(=O)NC(C)CC(C)(C)N(C)C)C2 (stereo not drawn),inactive: -1.02,inactive: 0.476,inactive: 0.316
COc1ccc2c(OCc3nnc4ccc(-c5ccccc5)nn34)ccnc2c1,inactive: -0.424,inactive: 0.13,inactive: -0.0342
CC[C@@H]1CN(C(=O)NCC(F)(F)F)C[C@@H]1c1cnc2cnc3[nH]ccc3n12 [Upadacitinib],inactive: -1.02,inactive: -0.884,inactive: 1.11
"CCC12C=CCN3CC[C@@]4(c5cc([C@@]6(C(=O)OC)C[C@@H]7CN(CCc8c6[nH]c6ccccc86)C[C@](O)(CC)C7)c(OC)cc5N(C=O)[C@H]4[C@@](O)(C(=O)OC)[C@@H]1OC(C)=O)[C@@H]32 (stereo partly drawn) [vincristine, Liposome Co]",inactive: -0.841,inactive: 4.14,active: 11.6
CCOC(=O)Cc1cc(Cl)c(Oc2ccc(C(=O)NC(C)(C)C)cc2NS(=O)(=O)c2ccc(C)cc2)cc1F,inactive: -1.14,inactive: -0.42,inactive: 1.72
Cc1cn(Cc2ccc(Cl)cc2Cl)c2c(/C=C/C(=O)NS(=O)(=O)c3cc(Cl)c(Cl)s3)cc(F)cc12,inactive: 2.03,inactive: 1.87,inactive: 0.836
CCCCCC(=O)O[C@]1(C(C)=O)CC[C@H]2[C@@H]3CCC4=CC(=O)CC[C@@H]4[C@H]3CCC21C (stereo partly drawn),inactive: -0.725,inactive: -0.909,inactive: 0.434
CCN(CC)C(=O)c1ccc(O)c(OC)c1,inactive: 1.53,inactive: -0.514,inactive: 3.02
CN1CCN(S(=O)(=O)CCCN2CCC(CNC(=O)c3cccc4c3OCCO4)CC2)CC1,inactive: 0.776,inactive: -0.151,inactive: -2.67
CCCCC/C=C\C/C=C\CCCCCCCC(=O)OCC(COC(=O)CCCCCCC/C=C\C/C=C\CCCCC)OC(=O)CCCCCCC/C=C\C/C=C\CCCCC,inactive: -0.766,inactive: -1.18,inactive: 0.471
CCOC(=O)/C=C(C)/C=C/C=C(C)/C=C/c1c(C)cc(OC)c(C)c1C,inactive: 0.204,inactive: -1.61,inactive: 0.154
CCCCCCCCCCCCNC(=O)C[N+](C)(C)Cc1ccccc1,inactive: 3.76,inactive: -1.26,inactive: 3.88
Cc1nc(-c2cccnc2)c(-c2ccccc2)[nH]1,inactive: -0.521,inactive: 0.233,inactive: -0.0682
CS(=O)(=O)OCCCCOS(C)(=O)=O [Busulfan55-98-1],inactive: -1.27,–,inactive: -0.0964
"CS(=O)(=O)OCCCCOS(C)(=O)=O [busulfan, MicroParticle]",–,inactive: -0.114,–
"COC(=O)C1=C(C)NC(C)=C(C(=O)OC)C1c1ccccc1[N+](=O)[O-] [nifedipine once daily, Watson]",inactive: -1.01,–,inactive: -1.53
COC(=O)C1=C(C)NC(C)=C(C(=O)OC)C1c1ccccc1[N+](=O)[O-] [nifedipine once daily],–,inactive: -1.69,–
CC(=O)N[C@H](Cc1ccc(O)cc1)C(=O)N1CCC[C@@H]1C(=O)N1C[C@@H](O)C[C@@H]1C(=O)NCC(=O)N[C@H](C)C(=O)NCC(N)=O,inactive: -0.438,inactive: -0.323,inactive: -0.647
CC(C)NC(=O)OCc1c(COC(=O)NC(C)C)c(-c2ccc(Cl)c(Cl)c2)n2c1CCC2,inactive: -1.53,inactive: 0.426,inactive: -1.64
CC(C)[C@H](NC(=O)[C@H](C(C)C)N(C)C)C(=O)N(C)[C@H](C(=O)N1CCC[C@H]1C(=O)N1CCC[C@H]1C(=O)NC(C)(C)C)C(C)C,inactive: -2.04,inactive: -0.138,inactive: -0.727
O[C@H]([C@H](O)[C@@H]1CO1)[C@H]1CO1 [Dianhydrogalactitol],inactive: 0.677,inactive: 0.466,inactive: -1.58
O=C1NCc2ccccc2CC12CCCCN2Cc1cccc(F)c1 (stereo not drawn),active: 5.19,–,inactive: -0.882
CC(=O)Nc1cccc(N2CCN(CCCCNS(=O)(=O)CC3CCCCC3)CC2)c1,inactive: -1.84,inactive: -0.151,active: 10.9
CCCNC(=O)c1ccc2c(c1)N(C(C)CN1CCCC1)c1ccccc1S2 (stereo not drawn) [Apadoline],inactive: -0.441,inactive: -0.378,inactive: 1.3

# Reformatted with bars between the fields: entries from further up.
SMILES | TEAD-luciferase reporter activity (compound concentration: 200 nM) | TEAD-luciferase reporter activity (compound concentration: 2 uM) | TEAD-luciferase reporter activity (compound concentration: 10 uM)
CCOC(=O)Cc1cc(Cl)c(Oc2ccc(C(=O)NC(C)(C)C)cc2NS(=O)(=O)c2ccc(C)cc2)cc1F | inactive: -1.14 | inactive: -0.42 | inactive: 1.72
Cc1cn(Cc2ccc(Cl)cc2Cl)c2c(/C=C/C(=O)NS(=O)(=O)c3cc(Cl)c(Cl)s3)cc(F)cc12 | inactive: 2.03 | inactive: 1.87 | inactive: 0.836
CCCCCC(=O)O[C@]1(C(C)=O)CC[C@H]2[C@@H]3CCC4=CC(=O)CC[C@@H]4[C@H]3CCC21C (stereo partly drawn) | inactive: -0.725 | inactive: -0.909 | inactive: 0.434
CCN(CC)C(=O)c1ccc(O)c(OC)c1 | inactive: 1.53 | inactive: -0.514 | inactive: 3.02
CN1CCN(S(=O)(=O)CCCN2CCC(CNC(=O)c3cccc4c3OCCO4)CC2)CC1 | inactive: 0.776 | inactive: -0.151 | inactive: -2.67
CCCCC/C=C\C/C=C\CCCCCCCC(=O)OCC(COC(=O)CCCCCCC/C=C\C/C=C\CCCCC)OC(=O)CCCCCCC/C=C\C/C=C\CCCCC | inactive: -0.766 | inactive: -1.18 | inactive: 0.471
CCOC(=O)/C=C(C)/C=C/C=C(C)/C=C/c1c(C)cc(OC)c(C)c1C | inactive: 0.204 | inactive: -1.61 | inactive: 0.154
CCCCCCCCCCCCNC(=O)C[N+](C)(C)Cc1ccccc1 | inactive: 3.76 | inactive: -1.26 | inactive: 3.88
Cc1nc(-c2cccnc2)c(-c2ccccc2)[nH]1 | inactive: -0.521 | inactive: 0.233 | inactive: -0.0682
CS(=O)(=O)OCCCCOS(C)(=O)=O [Busulfan55-98-1] | inactive: -1.27 | – | inactive: -0.0964
CS(=O)(=O)OCCCCOS(C)(=O)=O [busulfan, MicroParticle] | – | inactive: -0.114 | –
COC(=O)C1=C(C)NC(C)=C(C(=O)OC)C1c1ccccc1[N+](=O)[O-] [nifedipine once daily, Watson] | inactive: -1.01 | – | inactive: -1.53
COC(=O)C1=C(C)NC(C)=C(C(=O)OC)C1c1ccccc1[N+](=O)[O-] [nifedipine once daily] | – | inactive: -1.69 | –
CC(=O)N[C@H](Cc1ccc(O)cc1)C(=O)N1CCC[C@@H]1C(=O)N1C[C@@H](O)C[C@@H]1C(=O)NCC(=O)N[C@H](C)C(=O)NCC(N)=O | inactive: -0.438 | inactive: -0.323 | inactive: -0.647
CC(C)NC(=O)OCc1c(COC(=O)NC(C)C)c(-c2ccc(Cl)c(Cl)c2)n2c1CCC2 | inactive: -1.53 | inactive: 0.426 | inactive: -1.64
CC(C)[C@H](NC(=O)[C@H](C(C)C)N(C)C)C(=O)N(C)[C@H](C(=O)N1CCC[C@H]1C(=O)N1CCC[C@H]1C(=O)NC(C)(C)C)C(C)C | inactive: -2.04 | inactive: -0.138 | inactive: -0.727

# Later entries

SMILES,TEAD-luciferase reporter activity (compound concentration: 200 nM),TEAD-luciferase reporter activity (compound concentration: 2 uM),TEAD-luciferase reporter activity (compound concentration: 10 uM)
COc1ccc(CNc2nc(N3CCC[C@H]3CO)ncc2C(=O)NCc2ncccn2)cc1Cl [avanafil],inactive: 1.91,inactive: 0.0202,inactive: -0.97
CC(O)CN(C)c1ccc(NN)nn1 (stereo not drawn) [pildralazine],inactive: -0.494,inactive: 0.0246,inactive: -0.158
Cc1csc(Nc2nc3ccccc3[nH]2)n1,inactive: -0.833,inactive: 2.7,inactive: 3.57
CO[C@H]([C@H](OC)[C@H](O)COS(C)(=O)=O)[C@H](O)COS(C)(=O)=O,inactive: 1.69,inactive: -0.345,inactive: 0.271
CN1CCc2cc(Cl)c(O)cc2C(c2cccc3ccoc23)C1 (stereo not drawn),inactive: -1.16,inactive: -0.209,inactive: 1.98
COc1ccc(C[C@H](N)C(=O)N[C@H]2[C@@H](O)[C@H](n3cnc4c(N(C)C)ncnc43)O[C@@H]2CO)cc1,–,inactive: 3.76,–
COc1ccc(C[C@H](N)C(=O)N[C@H]2[C@@H](O)[C@H](n3cnc4c(N(C)C)ncnc43)O[C@@H]2CO)cc1 [Puromycin dihydrochloride],inactive: -1.08,–,inactive: 0.859
COc1ccc(C(=O)CC(=O)c2ccc(C(C)(C)C)cc2)cc1,inactive: -0.348,inactive: 0.454,inactive: 0.721
CC(=O)N1Cc2ccccc2OC2(CCN(C(=O)N(C)C)CC2)C1,inactive: -1.94,–,inactive: 4.36
CCCCCCCCCCOc1cc(OCCCCCCCCCC)cc(N(CC(=O)O)CC(=O)O)c1,inactive: -0.221,inactive: -0.544,inactive: -0.748
CCN(CC)CCCNC(=O)Cn1ncc(-c2ccccc2)c1-c1ccccc1 [Ipazilide fumarate],inactive: -1.21,inactive: -1.21,inactive: 2.97
Cc1noc(/C(=C/c2cccc(-c3cc(C(C)(C)S(C)(=O)=O)cc4cccnc34)c2)c2ccc(S(C)(=O)=O)cc2)n1,inactive: -1.83,inactive: 0.371,inactive: 1.05
CCc1ccc(C(=O)C(C)CN2CCCC2)cc1 (stereo not drawn) [Inaperisone hydrochloride],inactive: -1.51,inactive: -0.464,inactive: 0.698
C=CCn1c(=O)c2[nH]c(C3CCCCC3)nc2n(CC=C)c1=O,inactive: 1.15,inactive: -0.224,inactive: 0.0942
CCCNCC(O)COc1ccccc1C1CC2CCC1C2 (stereo not drawn),inactive: -0.41,inactive: 1.84,inactive: -0.848
COc1ccc(-c2c(Cl)ncn2-c2ccc(S(=O)(=O)NP(=O)(O)O)cc2)cc1F,inactive: -0.288,inactive: -0.988,inactive: -0.233
Cc1cccc(C)c1NC(=O)c1cc(S(N)(=O)=O)c(Cl)cc1O [xipamide],inactive: -0.398,inactive: 1.15,inactive: -0.855
O=S(=O)([O-])OC[C@H]1O[C@@H](n2cnc3c(O)ncnc32)[C@H](O)[C@@H]1O,inactive: 1.52,inactive: -1.08,inactive: -0.311
Cc1[nH]c(/C=C2\C(=O)Nc3ccc(F)cc32)c(C)c1C(=O)NC[C@H](O)CN1CCOCC1,inactive: 3.45,inactive: 3.68,inactive: 1.55
COc1cc2c(cc1OC)C(C)N(S(=O)(=O)c1ccccc1)CC2 (stereo not drawn),inactive: 0.345,inactive: -1.61,inactive: -0.0959
"CC(C)=CCC/C(C)=C/CC/C(C)=C/CSc1ccccc1C(N)=O [S-trans,trans-Farnesylthiosalicylamide]",inactive: -0.164,inactive: -1.23,inactive: 3.64
COc1ccc(C(=O)NC2(C(=O)O)Cc3ccccc3C2)cc1OCCc1cccc(C)c1,inactive: -2.88,inactive: -0.964,inactive: -0.789
O=C(Nc1ccc(Cl)c(Cl)c1)NS(=O)(=O)c1ccc2c(c1)CCO2,inactive: -1.29,inactive: -0.518,inactive: -0.242
O=S(=O)(Nc1ccc(CCNC[C@H](O)c2cccnc2)cc1)c1ccc(-c2nc(-c3ccc(C(F)(F)F)cc3)cs2)cc1,inactive: -1.2,inactive: -1.48,inactive: 0.105
CCOC(=O)c1ccc(OC(=O)CCCCCNC(=N)N)cc1 [Gabexate mesilate],inactive: 2.12,inactive: -0.416,inactive: -0.925
CC(C)NCC(O)COc1ccccc1C(C)(C)C (stereo not drawn),inactive: -1.2,inactive: -0.397,inactive: -1.04
